No constants are given. Whether binding was seen depends on the method and setting. In cells and extracts the contact can be indirect. Some entries that bind do so weakly or less than the wild type. Where a sequence is shown, tags or fusion partners need not be part of it.
Target: T1, Tda1-3HA (C-terminally 3xHA-tagged Tda1) (S. cerevisiae) (UniProt Q03533)
T1 sequence: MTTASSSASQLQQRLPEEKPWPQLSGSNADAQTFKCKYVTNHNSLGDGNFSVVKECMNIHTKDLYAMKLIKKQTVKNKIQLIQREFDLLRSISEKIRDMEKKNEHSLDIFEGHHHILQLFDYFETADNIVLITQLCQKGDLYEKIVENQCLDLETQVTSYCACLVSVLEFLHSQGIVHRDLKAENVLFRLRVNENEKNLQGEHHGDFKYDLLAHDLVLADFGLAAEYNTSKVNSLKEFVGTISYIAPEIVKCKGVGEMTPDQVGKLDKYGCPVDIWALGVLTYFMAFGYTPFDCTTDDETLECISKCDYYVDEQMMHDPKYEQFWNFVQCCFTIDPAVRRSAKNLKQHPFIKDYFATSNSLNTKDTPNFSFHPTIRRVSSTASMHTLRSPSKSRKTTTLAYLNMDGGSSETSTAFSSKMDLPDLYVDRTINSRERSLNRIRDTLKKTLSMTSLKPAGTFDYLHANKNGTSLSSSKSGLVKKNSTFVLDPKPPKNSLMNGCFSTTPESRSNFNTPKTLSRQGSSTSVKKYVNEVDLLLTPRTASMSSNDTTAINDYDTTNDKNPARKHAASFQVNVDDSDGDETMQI
Experiment: co-IP; yeast lysates (cells in YPD, or 30 min more in YP with 0.05% glucose); IP with anti-HA antibody (12CA5) and Ab-Capcher MAG2 beads, 4 °C; 40 mM Tris-HCl pH 7.5, 150 mM NaCl, 0.5% Triton X-100; immunoblot with anti-HA and anti-FLAG

B1: Snf1-5FLAG (enzyme, UniProt P06782 1-633)
chain: MSSNNNTNTAPANANSSHHHHHHHHHHHHHGHGGSNSTLNNPKSSLADGAHIGNYQIVKTLGEGSFGKVKLAYHTTTGQKVALKIINKKVLAKSDMQGRIEREISYLRLLRHPHIIKLYDVIKSKDEIIMVIEYAGNELFDYIVQRDKMSEQEARRFFQQIISAVEYCHRHKIVHRDLKPENLLLDEHLNVKIADFGLSNIMTDGNFLKTSCGSPNYAAPEVISGKLYAGPEVDVWSCGVILYVMLCRRLPFDDESIPVLFKNISNGVYTLPKFLSPGAAGLIKRMLIVNPLNRISIHEIMQDDWFKVDLPEYLLPPDLKPHPEEENENNDSKKDGSSPDNDEIDDNLVNILSSTMGYEKDEIYESLESSEDTPAFNEIRDAYMLIKENKSLIKDMKANKSVSDELDTFLSQSPPTFQQQSKSHQKSQVDHETAKQHARRMASAITQQRTYHQSPFMDQYKEEDSTVSILPTSLPQIHRANMLAQGSPAASKISPLVTKKSKTRWHFGIRSRSYPLDVMGEIYIALKNLGAEWAKPSEEDLWTIKLRWKYDIGNKTNTNEKIPDLMKMVIQLFQIETNNYLVDFKFDGWESSYGDDTTVSNISEDEMSTFSAYPFLHLTTKLIMELAVNSQSN
binding: binds

B2: Rim11-5FLAG (enzyme, UniProt P38615 1-370)
chain: MNIQSNNSPNLSNNIVSKQVYYAHPPPTIDPNDPVQISFPTTEVVGHGSFGVVFATVIQETNEKVAIKKVLQDKRFKNRELEIMKMLSHINIIDLKYFFYERDSQDEIYLNLILEYMPQSLYQRLRHFVHQRTPMSRLEIKYYMFQLFKSLNYLHHFANVCHRDIKPQNLLVDPETWSLKLCDFGSAKQLKPTEPNVSYICSRYYRAPELIFGATNYTNQIDIWSSGCVMAELLLGQPMFPGESGIDQLVEIIKILGTPSKQEICSMNPNYMEHKFPQIKPIPLSRVFKKEDDQTVEFLADVLKYDPLERFNALQCLCSPYFDELKLDDGKINQITTDLKLLEFDENVELGHLSPDELSSVKKKLYPKSK
binding: binds
